US8367332B2, “Detection and quantification of abasic site formation in vivo” (Case Western Reserve University, priority 2008, dated 2013)
At least one compound was matched to its structure with a doubt left.

Experiments:
AP sites [1] = experiment: microPET time course of AP site formation after TMZ ([^11C]MX uptake); assay type: in vivo, mice; settings: xenograft; single injection TMZ 80 mg/kg; [^11C]MX 2 mCi/kg
AP sites [2] = experiment: ARP assay of AP sites in A375 melanoma cells; assay type: cell-based; settings: TMZ 0-1500 μM, 24 hr
Procedure: FIG. 5 illustrates a graph showing AP sites increased in melanoma cells (A375) after treatment with TMZ in a dose-dependent manner. Using ARP assay, formation of AP sites in A375 melanoma cells were measured. Cells were treated with TMZ (0-1500 μM) alone or TMZ plus MX (12.5 mM) for 24 hr for a dose-dependent assay (black), or treated with TMZ and MX (12.5 mM) for 24 hr, or treated with TMZ and F422 (12.5 mM) for 24 hours.

AP sites [3] = experiment: ARP-based biochemical assay of AP sites in xenograft tumor tissue after TMZ; assay type: in vivo, mice; settings: single injection TMZ 80 mg/kg

Compound: Cn1nnc2c(C(N)=O)ncn2c1=O [TMZ, 3,4-dihydro-3-methyl-4-oxoimidazo[5,1-d]tetrazine-8-carboxamide]
- levels of TMZ-induced AP sites in tumor tissue, 4 hours vs 24 hours (microPET) (AP sites [1]): consistently higher at 4 hours than that at 24 hours
- formation of AP sites (ARP assay) (AP sites [2]): increased
- levels of TMZ-induced AP sites in tumor tissue, 4 hours vs 24 hours (ARP biochemical assay) (AP sites [3]): consistently higher at 4 hours than that at 24 hours
